Results reported in paper PMC12431657, “Discovery and mechanistic insights of dibenzoylmethane as a broad spectrum inhibitor of coronavirus” (PLOS Pathogens, 2025).
Like-named read-outs stand apart in the source and are kept apart here. About 60 (2%) of roughly 3,300 compounds showed an effect of 50% or more. Some of the results follow. Numbered stars: 1 amine (or outer) side, 2 acyl side, 3 side chain; on linkers, the order of the positions; unused ones are H or OH. Bridge positions count the residues as written; N and C are the ends. Square brackets hold non-standard residues; d marks the D form. Peptide text beside a SMILES is read from it. * marks the point of attachment. Orn(4R-OH,5R-OH) = O=C([C@H](C[C@@H](O)[C@@H](O)N[*:3])N[*:1])[*:2]; Tetradecanoyl(10R,12S-Me2) = CC[C@H](C)C[C@H](C)CCCCCCCCC(=O)*; hTyr(3S-OH,4S-OH) = N[C@H](C(=O)O)[C@H](O)[C@@H](O)c1ccc(O)cc1; Gln(3R-OH) = NC(=O)C[C@@H](O)[C@H](N)C(=O)O; Pro(3S-OH) = O=C(O)[C@H]1NCC[C@@H]1O; Hyp = O=C(O)[C@@H]1C[C@@H](O)CN1

Tested on: HCoV-OC43
Design: species or system RD; HTS, protection from HCoV-OC43 induced cell death, luminescent cell viability (CellCounting-Lite 2.0), inhibition rate
Details: 24 h post infection, 1 h compound pre-incubation, 10 µM, inhibitor

## C[C@@H]1C(=O)O[C@H]2C[C@@]34[C@H]5C[C@@H](C(C)(C)C)[C@]36[C@@H](OC(=O)[C@@H]6O)O[C@@]4(C(=O)O5)[C@]21O [Ginkgolide A]
  OC43 Inhibition rate: 0%

## CC1(C)CC[C@]2(C)CC[C@]3(C)C(=CC[C@@H]4[C@@]5(C)CC[C@@H](O)[C@](C)(C(=O)O)[C@@H]5CC[C@]43C)[C@@H]2C1 [alpha-Boswellic acid]
  OC43 Inhibition rate: 6%

## CCCCCC1=C(C)CCC1=O [Dihydrojasmone]
  OC43 Inhibition rate: 0.1%

## Nc1nc2ncc([C@H](O)[C@H](O)CO)nc2c(=O)[nH]1 [Neopterin]
  OC43 Inhibition rate: 0.5%

## CNCC(O)c1ccc(O)cc1 (stereo not shown) [p-Synephrine]
OC43 Inhibition rate, 24 h
  OC43 Inhibition rate: 2.7%

## O=C(O)c1cc(O)c2c(c1)[C@H]([C@H]1c3cc(C(=O)O)cc(O)c3C(=O)c3c(O[C@@H]4O[C@H](CO)[C@@H](O)[C@H](O)[C@H]4O)cccc31)c1cccc(O[C@@H]3O[C@H](CO)[C@@H](O)[C@H](O)[C@H]3O)c1C2=O [Sennoside A]
  OC43 Inhibition rate: 0.5%

## NC(=O)c1ccc[n+]([C@@H]2O[C@H](COP(=O)([O-])O)[C@@H](O)[C@H]2O)c1 [β-Nicotinamide mononucleotide]
  OC43 Inhibition rate: -0.9%

## Cc1ncc(COP(=O)(O)O)c(C=O)c1O [Pyridoxal phosphate]
OC43 Inhibition rate, 24 h
  OC43 Inhibition rate: -0.7%

## CCCCCC/C=C\CCCCCCCC(=O)OC [Methyl palmitoleate]
  OC43 Inhibition rate: -0.6%

## CC(C)(N)C(=O)O [NSC 16590]
  OC43 Inhibition rate: 0.1%

## COc1c(O[C@@H]2O[C@H](C(=O)O)[C@@H](O)[C@H](O)[C@H]2O)cc(O)c2c(=O)cc(-c3ccccc3)oc12 [Wogonoside]
  OC43 Inhibition rate: 0.2%

## COc1cc2oc(-c3ccccc3)cc(=O)c2c(OC)c1OC [5,6,7-Trimethoxyflavone]
  OC43 Inhibition rate: 0.1%

## C[C@@H]1C[C@H]2O[C@@]3(O[C@@H]2C(C)(C)O)[C@H](O)[C@@]2(C)[C@@H]4CC[C@H]5C(C)(C)[C@@H](O)CC[C@@]56C[C@@]46CC[C@]2(C)[C@@H]13 [Cimigenol]
  OC43 Inhibition rate: 8.4%

## C[C@H](CC[C@@]1(O)O[C@H]2C[C@H]3[C@@H]4CC=C5C[C@@H](O[C@@H]6O[C@H](CO)[C@@H](O)[C@H](O[C@@H]7O[C@H](CO)[C@@H](O)[C@H](O)[C@H]7O)[C@H]6O[C@@H]6O[C@@H](C)[C@H](O)[C@@H](O)[C@H]6O)CC[C@]5(C)[C@H]4CC[C@]3(C)[C@H]2[C@@H]1C)CO[C@@H]1O[C@H](CO)[C@@H](O)[C@H](O)[C@H]1O [Protogracillin]
  OC43 Inhibition rate: 0.4%

## O=C1c2cc(CO)cc(O)c2C(=O)c2c(O[C@@H]3O[C@H](CO)[C@@H](O)[C@H](O)[C@H]3O)cccc21 [Aloe-emodin-8-O-β-D-glucopyranoside]
  OC43 Inhibition rate: 3.4%

## C=C(C)[C@H](CC=C(C)C)Cc1c(O)cc(OC)c2c1O[C@H](c1ccc(O)cc1OC)CC2=O [(2S)-2'-Methoxykurarinone]
  OC43 Inhibition rate: 98.5%

## C=CCC1=C[C@]2(OC)C(=O)C(OC)(OC)[C@H]1[C@@H]1C(OC)(OC)C(=O)C(OC)=C[C@@]12CC=C [Asatone]
  OC43 Inhibition rate: 1.4%

## O=Cc1ccoc1 [3-Furaldehyde]
  OC43 Inhibition rate: -1.5%

## CC1(C)O[C@H]1COc1c2ccoc2cc2oc(=O)ccc12 [Oxypeucedanin]
  OC43 Inhibition rate: 0.5%

## O=C1c2cccc(O)c2C(=O)c2c(O)cc(CO)cc21 [Aloe emodin]
  OC43 Inhibition rate: -1.1%

## O=C(O)[C@H](O)[C@@H](O)C(=O)O [L-Tartaric acid]
OC43 Inhibition rate, 24 h
  OC43 Inhibition rate: 0%

## CC[C@H](C)C[C@H](C)CCCCCCCCC(=O)N[C@H]1C[C@@H](O)[C@@H](O)NC(=O)[C@@H]2[C@@H](O)CCN2C(=O)[C@H]([C@H](O)CC(N)=O)NC(=O)[C@H]([C@H](O)[C@@H](O)c2ccc(O)cc2)NC(=O)[C@@H]2C[C@@H](O)CN2C(=O)[C@H]([C@@H](C)O)NC1=O [Pneumocandin B0] ({Tetradecanoyl(10R,12S-Me2)}-[Orn(4R-OH,5R-OH)]T[Hyp][hTyr(3S-OH,4S-OH)][Gln(3R-OH)][Pro(3S-OH)]; lactam 1-C)
  OC43 Inhibition rate: 1.9%

## O=C(O)CNC(=O)c1ccccc1 [Hippuric acid]
  OC43 Inhibition rate: -1.7%

## O=C(O)[C@@H]1Cc2nc[nH]c2CN1 [Spinacine]
  OC43 Inhibition rate: 1.1%

## COc1cc2c(CCNC(C)=O)c[nH]c2cc1O [6-Hydroxymelatonin]
  OC43 Inhibition rate: -0.8%

## O=C(O)[C@@H](O)[C@@H](O)[C@H](O)[C@@H](O)C(=O)O [D-Glucaric acid (potassium)]
  OC43 Inhibition rate: -8%

## O=c1c(O)c(-c2ccccc2)oc2ccccc12 [Flavonol]
  OC43 Inhibition rate: 0%

## Oc1cc(O)cc(/C=C/c2ccccc2)c1 [Pinosylvin]
  OC43 Inhibition rate: 0.4%

## C[C@@H]1CC[C@@]2(OC1)O[C@H]1C[C@H]3[C@@H]4CC[C@H]5C[C@@H](O)CC[C@]5(C)[C@H]4CC[C@]3(C)[C@H]1[C@@H]2C [Tigogenin]
  OC43 Inhibition rate: 0.6%

## CCOC(=O)CCC(=O)OCC [Diethyl succinate]
  OC43 Inhibition rate: -2.1%

## CC(C)(O)CC[C@@H](O)[C@](C)(O)[C@H]1CC[C@@]2(O)C3=CC(=O)[C@@H]4C[C@@H](O)[C@@H](O)C[C@]4(C)[C@H]3[C@H](O)C[C@]12C [Turkesterone]
  OC43 Inhibition rate: -2%

## COc1cc(/C=C/C(=O)OCC[N+](C)(C)C)cc(OC)c1O [Sinapine]
  OC43 Inhibition rate: -1.2%

## CC[C@]12C=CCN3CC[C@]4(C(=C(C(=O)OC)C1)Nc1ccccc14)[C@@H]32 [Tabersonine]
  OC43 Inhibition rate: 0%

## COc1c(CC=C(C)C)c(O)cc2oc(=O)c(-c3ccc(O)cc3O)cc12 [Glycycoumarin]
  OC43 Inhibition rate: 0.9%

## O=C(N[C@@H](c1ccccc1)[C@@H](O)C(=O)O)c1ccccc1 [N-Benzoyl-(2R,3S)-3-phenylisoserine]
  OC43 Inhibition rate: 0.3%

## O=C1c2ccccc2C(=O)c2ccccc21 [Anthraquinone]
  OC43 Inhibition rate: -0.3%

## CO[C@@H]1[C@@H](O[C@@H]2O[C@H](C)[C@@H](O[C@H]3C[C@@](C)(O)[C@@H](O)[C@H](C)O3)[C@H](N(C)C)[C@H]2O)[C@@H](CC=O)C[C@@H](C)[C@@H](O[C@H]2CC[C@H](N(C)C)[C@@H](C)O2)/C=C/C=C/C[C@@H](C)OC(=O)C[C@H]1O [Spiramycin I]
  OC43 Inhibition rate: 0.5%

## O=C(O)/C=C(/CC(=O)O)C(=O)O [(Z)-Aconitic acid]
  OC43 Inhibition rate: 0%

## Nc1ncnc(N[C@@H]2O[C@H](CO)[C@@H](O)[C@H]2O)c1[N+](=O)[O-] [Clitocine]
  OC43 Inhibition rate: -0.9%

## Nc1ccc(O)c(C(=O)O)c1 [5-Aminosalicylic Acid]
  OC43 Inhibition rate: 0.7%

## COc1cc([C@H]2OC[C@H]3[C@@H]2CO[C@H]3c2ccc(OC)c(OC)c2)ccc1O [Phillygenin]
  OC43 Inhibition rate: -1.3%

## CC(=O)O[C@H]1Cc2cc3c(cc2[C@H]2N(C)Cc4c(ccc5c4OCO5)[C@@]12C)OCO3 [Acetylcorynoline]
  OC43 Inhibition rate: 0.8%

## COc1cc(-c2coc3cc(O[C@@H]4O[C@H](CO)[C@@H](O)[C@H](O)[C@H]4O)c(OC)c(O)c3c2=O)ccc1O [Iristectorin B]
  OC43 Inhibition rate: 3.2%

## COc1cc2c(cc1O)CC[C@@H]1[C@@H]2CC[C@]2(C)[C@@H](O)CC[C@@H]12 [2-Methoxyestradiol]
  OC43 Inhibition rate: -0.6%

## CC1=CC(=O)CC(C)(C)C1=O [Ketoisophorone]
  OC43 Inhibition rate: 1.3%

## C[C@@H]1O[C@@H](Oc2c(-c3ccc(O)c(O)c3)oc3cc(O)cc(O)c3c2=O)[C@H](O)[C@H](O)[C@H]1O [Quercitrin]
  OC43 Inhibition rate: 11.3%

## C[C@@H]1O[C@@H](O[C@H]2[C@H](O[C@H]3CC[C@@]4(C)[C@@H](CC[C@]5(C)[C@@H]4CC=C4[C@@H]6CC(C)(C)CC[C@]6(C(=O)O[C@@H]6O[C@H](CO[C@@H]7O[C@H](CO)[C@@H](O)[C@H](O)[C@H]7O)[C@@H](O)[C@H](O)[C@H]6O)CC[C@]45C)[C@]3(C)CO)OC[C@H](O)[C@@H]2O)[C@H](O)[C@H](O[C@@H]2O[C@H](CO)[C@@H](O)[C@H](O)[C@H]2O)[C@H]1O [Macranthoidin A]
  OC43 Inhibition rate: -0.3%

## O=C1O[C@@H]2[C@@H](O)[C@H](O)[C@@H](CO)O[C@H]2c2c1cc(O)c(O)c2O [Norbergenin]
  OC43 Inhibition rate: -0.8%

## OC[C@H](O)C(O)[C@@H](O)CO [L-Arabinitol]
  OC43 Inhibition rate: -0.9%

## Cc1nc2ccccc2c(=O)[nH]1 [2-Methylquinazolin-4-ol]
  OC43 Inhibition rate: -0.1%

## C[C@@H]1CC[C@@]2(NC1)O[C@H]1C[C@H]3[C@@H]4CC=C5C[C@@H](O[C@@H]6O[C@H](CO)[C@@H](O[C@@H]7O[C@@H](C)[C@H](O)[C@@H](O)[C@H]7O)[C@H](O)[C@H]6O[C@@H]6O[C@@H](C)[C@H](O)[C@@H](O)[C@H]6O)CC[C@]5(C)[C@H]4CC[C@]3(C)[C@H]1[C@@H]2C [Solamargine]
  OC43 Inhibition rate: -9.7%

## O=c1cc(-c2cc(O)c(O)c(O)c2)oc2cc(O)cc(O)c12 [Tricetin]
  OC43 Inhibition rate: 4.4%

## CCC/C=C1\OC(=O)C2=C1CC[C@H]1[C@H]3C=C4C(=O)O/C(=C\CCC)[C@@]4(CC3)[C@@H]21 [Levistolide A]
  OC43 Inhibition rate: 77.4%

## CC1(C)OC(=O)C=C[C@]2(C)[C@H]3CC[C@@]4(C)[C@H](c5ccoc5)OC(=O)[C@H]5O[C@]54[C@]3(C)C(=O)C[C@@H]12 [Obacunone]
  OC43 Inhibition rate: 8.1%

## C=C(C)[C@@H]1CCC2=CC(=O)C[C@@H](C)[C@]2(C)C1 [Nootkatone]
  OC43 Inhibition rate: 14.5%
